# The supplement of paper PMC8728848
# Some of the results follow.
# Tests used:
# Assay in all cases: glycan array binding signal (z-score within array); higher = stronger binding
# Conditions in all cases: glycan notation: IUPAC condensed, linker removed
# [1] = target: Gal(b1-4)GlcNAc(b1-2)Man(a1-6)[Man(a1-3)]Man(b1-4)GlcNAc(b1-4)GlcNAc
# Outline: (§1)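 From the Consortium for Functional Glycomics database, 3228 arrays were curated, keeping only those whose protein sequence was available. Binding is given as a within-array Z-score averaged across arrays sharing a protein sequence and across linkers. Negative Z-scores can be read as non-binding.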
# [2] = target: Gal(b1-4)GlcNAc(b1-2)[Gal(b1-4)GlcNAc(b1-4)]Man(a1-3)[Gal(b1-4)GlcNAc(b1-2)Man(a1-6)]Man(b1-4)GlcNAc(b1-4)GlcNAc
# Outline: as §1
# [3] = target: Gal(b1-4)GlcNAc(b1-2)[Gal(b1-4)GlcNAc(b1-4)]Man(a1-3)[Gal(b1-4)GlcNAc(b1-2)[Gal(b1-4)GlcNAc(b1-6)]Man(a1-6)]Man(b1-4)GlcNAc(b1-4)GlcNAc
# Outline: as §1
# [4] = target: Gal(b1-4)GlcNAc(b1-2)[Gal(b1-4)GlcNAc(b1-4)]Man(a1-3)[GlcNAc(b1-4)][Gal(b1-4)GlcNAc(b1-2)Man(a1-6)]Man(b1-4)GlcNAc(b1-4)GlcNAc
# Outline: as §1
# [5] = target: Gal(b1-4)GlcNAc(b1-2)[Gal(b1-4)GlcNAc(b1-4)]Man(a1-3)[GlcNAc(b1-4)][Gal(b1-4)GlcNAc(b1-2)[Gal(b1-4)GlcNAc(b1-6)]Man(a1-6)]Man(b1-4)GlcNAc(b1-4)GlcNAc
# Outline: as §1
# [6] = target: Gal(b1-4)GlcNAc(b1-2)[Gal(b1-4)GlcNAc(b1-6)]Man(a1-6)[Gal(b1-4)GlcNAc(b1-2)Man(a1-3)]Man(b1-4)GlcNAc(b1-4)GlcNAc
# Outline: as §1
# [7] = target: Gal(b1-4)GlcNAc(b1-2)[Gal(b1-4)GlcNAc(b1-6)]Man(a1-6)[Gal(b1-4)GlcNAc(b1-2)Man(a1-3)]Man(b1-4)GlcNAc(b1-4)[Fuc(a1-6)]GlcNAc
# Outline: as §1
# [8] = target: Gal(b1-4)GlcNAc(b1-2)[Gal(b1-4)GlcNAc(b1-6)]Man(a1-6)[GlcNAc(b1-4)][Gal(b1-4)GlcNAc(b1-2)Man(a1-3)]Man(b1-4)GlcNAc(b1-4)GlcNAc
# Outline: as §1
# [9] = target: Gal(b1-4)GlcNAc(b1-2)[Gal(b1-4)GlcNAc(b1-6)]Man(a1-6)[GlcNAc(b1-4)][Gal(b1-4)GlcNAc(b1-2)[Gal(b1-4)GlcNAc(b1-4)]Man(a1-3)]Man(b1-4)GlcNAc(b1-4)[Fuc(a1-6)]GlcNAc
# Outline: as §1
# [10] = target: Gal(b1-4)GlcNAc(b1-3)Gal(b1-3)GalNAc
# Outline: as §1
# [11] = target: Gal(b1-4)GlcNAc(b1-3)Gal(b1-3)GlcNAc
# Outline: as §1
# [12] = target: Gal(b1-4)GlcNAc(b1-3)Gal(b1-4)Glc
# Outline: as §1
# [13] = target: Gal(b1-4)GlcNAc(b1-3)Gal(b1-4)GlcNAc
# Outline: as §1
# [14] = target: Gal(b1-4)GlcNAc(b1-3)Gal(b1-4)GlcNAc(b1-2)Man(a1-3)[Gal(b1-4)GlcNAc(b1-3)Gal(b1-4)GlcNAc(b1-2)Man(a1-6)]Man(b1-4)GlcNAc(b1-4)GlcNAc
# Outline: as §1
# [15] = target: Gal(b1-4)GlcNAc(b1-3)Gal(b1-4)GlcNAc(b1-2)Man(a1-3)[Gal(b1-4)GlcNAc(b1-3)Gal(b1-4)GlcNAc(b1-2)Man(a1-6)]Man(b1-4)GlcNAc(b1-4)[Fuc(a1-6)]GlcNAc
# Outline: as §1
# [16] = target: Gal(b1-4)GlcNAc(b1-3)Gal(b1-4)GlcNAc(b1-2)[Gal(b1-4)GlcNAc(b1-3)Gal(b1-4)GlcNAc(b1-6)]Man(a1-6)[Gal(b1-4)GlcNAc(b1-3)Gal(b1-4)GlcNAc(b1-2)Man(a1-3)]Man(b1-4)GlcNAc(b1-4)GlcNAc
# Outline: as §1
# [17] = target: Gal(b1-4)GlcNAc(b1-3)Gal(b1-4)GlcNAc(b1-2)[Gal(b1-4)GlcNAc(b1-3)Gal(b1-4)GlcNAc(b1-6)]Man(a1-6)[Gal(b1-4)GlcNAc(b1-3)Gal(b1-4)GlcNAc(b1-2)Man(a1-3)]Man(b1-4)GlcNAc(b1-4)[Fuc(a1-6)]GlcNAc
# Outline: as §1
# [18] = target: Gal(b1-4)GlcNAc(b1-3)Gal(b1-4)GlcNAc(b1-3)Gal(b1-4)GlcNAc
# Outline: as §1
binder,measurement,setting,value
OS9 (Arabidopsis thaliana) (protein) MRGSHHHHHHGMASMTGGQQMGRDLYDDDDKSRLQIFPAHLVGTFSRNNREPKYKIEFLPEDSPFHPGDNLESMVMLDKHGNRFLCYLPKEEKATSGWTSSQQNISTVMMETQQLVKLKTPDELLQPLSEKCLFRQEGWWSYEFCHQKYVRQLHVEDENKIVQEFFLGTFDPEATAAFNQTVSDASTDASQRYHSHVYTNGTTCDLTGSPREVEVRFVCAETRAMVTSITELSTCKYALTVQCPTLCKHPLFQLEKPVSHTIHCNAIPVEEDATRNKEEQAVDESPKMIADS,glycan array binding signal (z-score),[1],-1.68
same,glycan array binding signal (z-score),[2],0.895
same,glycan array binding signal (z-score),[3],-1.1
same,glycan array binding signal (z-score),[4],-0.134
same,glycan array binding signal (z-score),[5],-0.3
same,glycan array binding signal (z-score),[6],0.108
same,glycan array binding signal (z-score),[7],-0.47
same,glycan array binding signal (z-score),[8],-0.016
same,glycan array binding signal (z-score),[9],-0.26
same,glycan array binding signal (z-score),[10],-0.687
same,glycan array binding signal (z-score),[11],-0.836
same,glycan array binding signal (z-score),[12],-0.54
same,glycan array binding signal (z-score),[13],-0.603
same,glycan array binding signal (z-score),[14],1.39
same,glycan array binding signal (z-score),[15],1.58
same,glycan array binding signal (z-score),[16],0.742
same,glycan array binding signal (z-score),[17],-0.255
same,glycan array binding signal (z-score),[18],0.535

# Given with tabs: part of the list above.
binder	measurement	setting	value
OS9 (Arabidopsis thaliana) (protein) MRGSHHHHHHGMASMTGGQQMGRDLYDDDDKSRLQIFPAHLVGTFSRNNREPKYKIEFLPEDSPFHPGDNLESMVMLDKHGNRFLCYLPKEEKATSGWTSSQQNISTVMMETQQLVKLKTPDELLQPLSEKCLFRQEGWWSYEFCHQKYVRQLHVEDENKIVQEFFLGTFDPEATAAFNQTVSDASTDASQRYHSHVYTNGTTCDLTGSPREVEVRFVCAETRAMVTSITELSTCKYALTVQCPTLCKHPLFQLEKPVSHTIHCNAIPVEEDATRNKEEQAVDESPKMIADS	glycan array binding signal (z-score)	[5]	-0.3
same	glycan array binding signal (z-score)	[12]	-0.54
